# Article PMC5573332
# The chains behind the UniProt entries cited, without tags or fusion partners.
# UniProt Q05397: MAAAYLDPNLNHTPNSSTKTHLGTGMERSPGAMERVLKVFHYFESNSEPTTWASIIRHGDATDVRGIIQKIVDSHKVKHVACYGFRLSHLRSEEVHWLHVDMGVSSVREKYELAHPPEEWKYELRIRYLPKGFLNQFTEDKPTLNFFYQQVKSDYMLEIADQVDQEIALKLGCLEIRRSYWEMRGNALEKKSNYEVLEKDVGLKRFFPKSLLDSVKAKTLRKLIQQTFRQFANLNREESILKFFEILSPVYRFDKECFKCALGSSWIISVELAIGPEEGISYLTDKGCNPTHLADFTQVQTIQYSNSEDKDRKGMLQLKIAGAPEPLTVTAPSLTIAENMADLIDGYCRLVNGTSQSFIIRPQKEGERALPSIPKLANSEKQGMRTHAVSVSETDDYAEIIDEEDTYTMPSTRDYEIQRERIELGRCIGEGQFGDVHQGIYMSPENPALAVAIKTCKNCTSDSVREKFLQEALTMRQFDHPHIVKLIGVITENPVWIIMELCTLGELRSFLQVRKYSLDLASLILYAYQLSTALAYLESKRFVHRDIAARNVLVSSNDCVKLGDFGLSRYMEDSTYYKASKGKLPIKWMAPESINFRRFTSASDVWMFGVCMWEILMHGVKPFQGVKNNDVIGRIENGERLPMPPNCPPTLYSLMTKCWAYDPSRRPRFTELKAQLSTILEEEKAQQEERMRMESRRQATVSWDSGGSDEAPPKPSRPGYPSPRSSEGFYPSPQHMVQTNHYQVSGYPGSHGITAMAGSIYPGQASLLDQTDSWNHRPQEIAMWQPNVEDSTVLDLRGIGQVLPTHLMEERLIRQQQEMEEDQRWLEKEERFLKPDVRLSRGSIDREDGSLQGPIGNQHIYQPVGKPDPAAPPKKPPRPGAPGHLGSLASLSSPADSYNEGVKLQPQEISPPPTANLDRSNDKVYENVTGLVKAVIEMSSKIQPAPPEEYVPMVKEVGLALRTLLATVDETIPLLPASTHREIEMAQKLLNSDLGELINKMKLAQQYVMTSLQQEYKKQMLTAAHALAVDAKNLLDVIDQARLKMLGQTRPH
# UniProt P49023: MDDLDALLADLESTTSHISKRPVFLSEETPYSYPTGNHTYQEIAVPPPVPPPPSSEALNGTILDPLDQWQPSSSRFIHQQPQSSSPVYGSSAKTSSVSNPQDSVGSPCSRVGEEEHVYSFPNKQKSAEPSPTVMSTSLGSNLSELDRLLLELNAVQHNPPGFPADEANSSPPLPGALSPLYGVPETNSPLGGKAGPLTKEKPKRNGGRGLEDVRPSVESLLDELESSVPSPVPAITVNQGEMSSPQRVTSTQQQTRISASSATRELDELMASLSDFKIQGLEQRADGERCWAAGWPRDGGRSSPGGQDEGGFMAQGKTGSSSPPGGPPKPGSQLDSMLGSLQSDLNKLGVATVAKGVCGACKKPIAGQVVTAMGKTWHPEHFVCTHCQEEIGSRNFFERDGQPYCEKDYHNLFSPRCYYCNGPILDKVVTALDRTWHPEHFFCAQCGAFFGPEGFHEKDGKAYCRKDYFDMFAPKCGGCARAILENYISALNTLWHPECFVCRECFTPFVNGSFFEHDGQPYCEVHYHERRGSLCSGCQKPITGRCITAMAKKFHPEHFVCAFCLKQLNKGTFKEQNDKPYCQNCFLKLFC
# Residue numbers refer to the chain shown, from its start. No constants are given. Whether binding was seen depends on the method and setting. Binding seen in cells or lysates may run through a third protein. Some entries that bind do so weakly or less than the wild type. For part of these data: Sequences can lack the tags named with a protein.
# Tests used:
# [1] = target: T1, FLAG-tagged PKD2 (Protein kinase D 2) (UniProt Q9BZL6); test: co-IP; Hek293T cells co-transfected with FLAG-PKD2 or FLAG-PKD2.Y87F and mCherry-FAK; PKD2 immunoprecipitated (anti-FLAG), blot for FAK; lysis in 50 mM Tris-HCl pH 7.4, 1% Triton X-100, 150 mM NaCl, 5 mM EDTA
# T1 sequence: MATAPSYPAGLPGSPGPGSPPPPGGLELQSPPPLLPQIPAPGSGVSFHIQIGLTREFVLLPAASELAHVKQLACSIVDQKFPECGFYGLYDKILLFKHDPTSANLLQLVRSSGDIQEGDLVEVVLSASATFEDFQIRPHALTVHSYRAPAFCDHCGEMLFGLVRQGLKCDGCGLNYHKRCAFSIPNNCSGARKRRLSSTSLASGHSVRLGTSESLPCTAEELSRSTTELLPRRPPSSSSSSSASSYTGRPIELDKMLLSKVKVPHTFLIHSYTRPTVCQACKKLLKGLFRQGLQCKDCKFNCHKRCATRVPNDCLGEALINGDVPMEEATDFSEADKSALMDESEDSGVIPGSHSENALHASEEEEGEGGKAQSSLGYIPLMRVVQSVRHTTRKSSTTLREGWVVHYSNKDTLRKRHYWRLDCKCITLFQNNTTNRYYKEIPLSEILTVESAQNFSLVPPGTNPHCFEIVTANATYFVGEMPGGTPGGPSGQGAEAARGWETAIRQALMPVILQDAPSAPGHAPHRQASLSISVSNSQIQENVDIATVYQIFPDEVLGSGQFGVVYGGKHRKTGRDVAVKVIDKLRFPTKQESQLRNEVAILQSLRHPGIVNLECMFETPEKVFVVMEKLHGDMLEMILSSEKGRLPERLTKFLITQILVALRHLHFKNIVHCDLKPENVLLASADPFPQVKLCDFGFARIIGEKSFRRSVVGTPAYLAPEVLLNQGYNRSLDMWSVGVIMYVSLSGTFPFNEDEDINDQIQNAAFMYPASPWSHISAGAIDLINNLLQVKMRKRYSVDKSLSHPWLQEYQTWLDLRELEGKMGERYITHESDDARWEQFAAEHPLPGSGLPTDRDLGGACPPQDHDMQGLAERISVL
# FLAG-tagged PKD2.Y87F = target: T2, FLAG-tagged PKD2.Y87F (UniProt Q9BZL6); test: as above
# T2 sequence: T1 sequence with Y87F
# [2] = target: T3, PKD2 (immunoprecipitated for the paxillin co-immunoprecipitation) (UniProt Q9BZL6); test: co-IP; PKD2 immunoprecipitates probed for paxillin (Supplemental Figure S2A)
# T3 sequence: T1 sequence
binding [1],binding (FLAG-tagged PKD2.Y87F),binding [2],Substance
binds,no binding,–,mCherry-FAK (Focal Adhesion Kinase) (from UniProt Q05397 1-1052) (enzyme)
–,–,binds,paxillin (from UniProt P49023 1-591)
